For 34 targets, log2 fold change results are on record in the supplement of paper PMC12819154, “High-throughput peptide-centric local stability assay extends protein–ligand identification to membrane proteins, tissues and bacteria” (Nature Structural & Molecular Biology, 2025).

Sequences of proteins named here, by UniProt entry; tags and fusion partners are left off. A change or cut given only in a name is not applied to a line headed by its entry.
UniProt Q9Z2X1: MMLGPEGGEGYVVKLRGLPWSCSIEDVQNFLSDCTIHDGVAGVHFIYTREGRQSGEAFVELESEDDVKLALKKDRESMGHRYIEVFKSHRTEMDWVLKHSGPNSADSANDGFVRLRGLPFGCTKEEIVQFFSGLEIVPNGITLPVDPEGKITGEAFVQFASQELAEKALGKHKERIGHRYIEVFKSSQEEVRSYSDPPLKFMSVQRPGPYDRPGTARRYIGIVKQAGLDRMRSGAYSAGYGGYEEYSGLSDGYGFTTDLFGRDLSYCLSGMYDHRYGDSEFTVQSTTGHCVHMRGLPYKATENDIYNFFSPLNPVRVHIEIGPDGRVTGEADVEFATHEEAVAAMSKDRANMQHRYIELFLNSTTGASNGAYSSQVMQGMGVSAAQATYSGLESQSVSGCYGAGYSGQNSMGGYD
UniProt Q9Z0F7, whole entry: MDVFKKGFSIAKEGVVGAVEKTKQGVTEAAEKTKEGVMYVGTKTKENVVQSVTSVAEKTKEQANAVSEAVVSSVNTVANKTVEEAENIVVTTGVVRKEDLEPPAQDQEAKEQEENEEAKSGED
UniProt Q9Z2A5: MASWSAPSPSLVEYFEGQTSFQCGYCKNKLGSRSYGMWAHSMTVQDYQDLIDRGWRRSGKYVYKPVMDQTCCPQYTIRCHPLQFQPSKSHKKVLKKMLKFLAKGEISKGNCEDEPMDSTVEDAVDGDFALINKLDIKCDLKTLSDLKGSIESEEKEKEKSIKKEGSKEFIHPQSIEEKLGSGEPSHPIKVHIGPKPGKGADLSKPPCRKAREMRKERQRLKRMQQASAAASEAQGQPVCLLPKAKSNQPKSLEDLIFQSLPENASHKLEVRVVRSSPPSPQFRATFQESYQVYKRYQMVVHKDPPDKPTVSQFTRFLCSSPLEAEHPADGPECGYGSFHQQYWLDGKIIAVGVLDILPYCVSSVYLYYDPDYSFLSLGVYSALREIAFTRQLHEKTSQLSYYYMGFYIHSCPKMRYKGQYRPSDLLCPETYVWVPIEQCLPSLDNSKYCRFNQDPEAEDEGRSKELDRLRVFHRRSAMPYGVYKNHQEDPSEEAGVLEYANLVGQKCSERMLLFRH
UniProt Q9Z172, whole entry: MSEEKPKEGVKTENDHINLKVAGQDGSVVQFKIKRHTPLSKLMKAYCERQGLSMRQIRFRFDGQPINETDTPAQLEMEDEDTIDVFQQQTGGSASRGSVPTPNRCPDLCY
UniProt Q9Z0P7: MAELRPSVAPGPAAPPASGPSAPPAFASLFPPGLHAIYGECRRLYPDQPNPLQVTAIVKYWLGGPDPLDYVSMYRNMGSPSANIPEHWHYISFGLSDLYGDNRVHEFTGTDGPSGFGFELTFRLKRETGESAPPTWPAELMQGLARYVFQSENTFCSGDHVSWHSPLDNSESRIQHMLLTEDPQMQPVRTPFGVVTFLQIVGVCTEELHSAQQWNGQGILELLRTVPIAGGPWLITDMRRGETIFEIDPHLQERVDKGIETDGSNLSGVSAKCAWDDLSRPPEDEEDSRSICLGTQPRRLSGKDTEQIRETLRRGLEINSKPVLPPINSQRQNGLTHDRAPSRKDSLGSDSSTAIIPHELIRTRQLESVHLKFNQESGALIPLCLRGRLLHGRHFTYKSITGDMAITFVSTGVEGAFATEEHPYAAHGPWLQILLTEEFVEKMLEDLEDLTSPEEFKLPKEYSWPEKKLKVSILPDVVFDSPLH
UniProt Q9Z1J2: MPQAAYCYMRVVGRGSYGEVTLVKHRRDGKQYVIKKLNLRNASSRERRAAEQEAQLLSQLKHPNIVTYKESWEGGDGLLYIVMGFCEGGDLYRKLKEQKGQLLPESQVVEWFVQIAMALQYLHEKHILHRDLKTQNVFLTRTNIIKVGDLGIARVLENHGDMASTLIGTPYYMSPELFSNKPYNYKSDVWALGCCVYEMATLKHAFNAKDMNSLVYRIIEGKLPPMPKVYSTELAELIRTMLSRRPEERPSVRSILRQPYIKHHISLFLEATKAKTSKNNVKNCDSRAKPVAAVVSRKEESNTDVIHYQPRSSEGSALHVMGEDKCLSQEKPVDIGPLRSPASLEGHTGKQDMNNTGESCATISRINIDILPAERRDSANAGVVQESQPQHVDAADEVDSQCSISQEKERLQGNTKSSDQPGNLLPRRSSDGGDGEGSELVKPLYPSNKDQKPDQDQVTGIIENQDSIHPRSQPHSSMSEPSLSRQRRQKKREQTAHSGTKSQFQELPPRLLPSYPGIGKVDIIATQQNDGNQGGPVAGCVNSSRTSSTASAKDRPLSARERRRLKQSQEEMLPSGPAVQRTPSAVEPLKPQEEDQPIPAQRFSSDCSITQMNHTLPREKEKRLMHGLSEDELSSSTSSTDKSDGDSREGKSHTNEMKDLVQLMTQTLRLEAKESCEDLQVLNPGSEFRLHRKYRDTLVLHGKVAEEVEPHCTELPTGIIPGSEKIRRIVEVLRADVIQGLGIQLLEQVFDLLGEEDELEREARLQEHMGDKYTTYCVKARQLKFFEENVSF
UniProt Q9Z205: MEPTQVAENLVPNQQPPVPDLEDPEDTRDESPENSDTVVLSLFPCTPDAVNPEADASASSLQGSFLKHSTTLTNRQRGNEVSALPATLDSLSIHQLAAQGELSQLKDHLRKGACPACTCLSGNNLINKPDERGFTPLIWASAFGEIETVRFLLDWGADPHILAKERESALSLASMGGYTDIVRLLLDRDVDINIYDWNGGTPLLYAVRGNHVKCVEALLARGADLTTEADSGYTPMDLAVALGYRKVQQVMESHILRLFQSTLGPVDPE
UniProt Q9Z2L6: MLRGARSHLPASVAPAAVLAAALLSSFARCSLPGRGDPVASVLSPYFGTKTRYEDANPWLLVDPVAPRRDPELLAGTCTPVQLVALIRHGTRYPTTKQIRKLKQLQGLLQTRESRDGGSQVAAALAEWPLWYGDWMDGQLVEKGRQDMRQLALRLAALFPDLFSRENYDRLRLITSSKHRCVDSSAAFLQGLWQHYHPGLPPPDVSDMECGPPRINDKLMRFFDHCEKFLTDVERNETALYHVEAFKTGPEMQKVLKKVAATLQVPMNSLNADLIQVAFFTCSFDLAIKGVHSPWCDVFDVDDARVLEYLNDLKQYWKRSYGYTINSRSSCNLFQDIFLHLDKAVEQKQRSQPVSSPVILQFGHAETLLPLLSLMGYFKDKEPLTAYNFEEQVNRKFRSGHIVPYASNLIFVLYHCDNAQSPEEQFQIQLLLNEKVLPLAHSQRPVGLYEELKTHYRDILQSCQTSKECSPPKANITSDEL
UniProt Q9Z1K6: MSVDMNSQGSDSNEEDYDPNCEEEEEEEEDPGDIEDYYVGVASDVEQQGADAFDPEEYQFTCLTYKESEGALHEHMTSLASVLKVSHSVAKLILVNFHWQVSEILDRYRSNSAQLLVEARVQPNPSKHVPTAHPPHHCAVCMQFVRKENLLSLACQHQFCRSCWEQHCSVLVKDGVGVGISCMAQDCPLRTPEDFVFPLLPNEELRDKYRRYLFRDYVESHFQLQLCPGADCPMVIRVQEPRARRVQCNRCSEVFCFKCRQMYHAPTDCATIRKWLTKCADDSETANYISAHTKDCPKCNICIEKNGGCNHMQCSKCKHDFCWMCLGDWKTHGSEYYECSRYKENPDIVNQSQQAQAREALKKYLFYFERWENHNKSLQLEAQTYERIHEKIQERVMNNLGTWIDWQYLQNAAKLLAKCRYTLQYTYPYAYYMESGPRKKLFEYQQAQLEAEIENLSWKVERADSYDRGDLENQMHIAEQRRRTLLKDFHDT
UniProt Q9WVJ3: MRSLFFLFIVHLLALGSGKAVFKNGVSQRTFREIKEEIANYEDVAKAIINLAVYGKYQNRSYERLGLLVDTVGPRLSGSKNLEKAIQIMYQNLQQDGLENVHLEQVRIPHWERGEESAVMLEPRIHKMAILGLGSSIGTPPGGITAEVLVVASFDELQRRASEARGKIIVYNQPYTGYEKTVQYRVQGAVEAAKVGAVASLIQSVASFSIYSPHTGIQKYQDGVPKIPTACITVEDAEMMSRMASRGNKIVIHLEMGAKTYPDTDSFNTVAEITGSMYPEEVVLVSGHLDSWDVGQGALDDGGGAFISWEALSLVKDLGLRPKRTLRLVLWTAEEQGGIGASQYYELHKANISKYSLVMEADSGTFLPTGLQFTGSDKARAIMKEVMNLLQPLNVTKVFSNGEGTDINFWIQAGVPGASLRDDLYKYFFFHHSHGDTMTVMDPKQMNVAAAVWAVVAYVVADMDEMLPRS
UniProt Q9Z1B8: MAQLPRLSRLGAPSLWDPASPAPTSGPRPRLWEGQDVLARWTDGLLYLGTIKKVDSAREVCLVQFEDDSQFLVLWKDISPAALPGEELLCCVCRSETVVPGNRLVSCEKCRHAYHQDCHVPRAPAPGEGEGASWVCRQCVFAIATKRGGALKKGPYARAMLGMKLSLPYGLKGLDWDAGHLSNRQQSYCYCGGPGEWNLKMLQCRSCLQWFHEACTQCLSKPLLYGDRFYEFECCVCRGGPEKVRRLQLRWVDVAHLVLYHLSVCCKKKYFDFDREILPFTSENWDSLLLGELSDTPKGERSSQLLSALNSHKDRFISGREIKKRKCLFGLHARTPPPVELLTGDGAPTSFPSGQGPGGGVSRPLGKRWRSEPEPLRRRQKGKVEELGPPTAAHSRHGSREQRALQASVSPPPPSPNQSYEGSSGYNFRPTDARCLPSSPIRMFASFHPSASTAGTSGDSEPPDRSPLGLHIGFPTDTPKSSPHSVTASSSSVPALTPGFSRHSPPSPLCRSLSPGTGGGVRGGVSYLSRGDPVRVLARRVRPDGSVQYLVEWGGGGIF
UniProt Q9Z206: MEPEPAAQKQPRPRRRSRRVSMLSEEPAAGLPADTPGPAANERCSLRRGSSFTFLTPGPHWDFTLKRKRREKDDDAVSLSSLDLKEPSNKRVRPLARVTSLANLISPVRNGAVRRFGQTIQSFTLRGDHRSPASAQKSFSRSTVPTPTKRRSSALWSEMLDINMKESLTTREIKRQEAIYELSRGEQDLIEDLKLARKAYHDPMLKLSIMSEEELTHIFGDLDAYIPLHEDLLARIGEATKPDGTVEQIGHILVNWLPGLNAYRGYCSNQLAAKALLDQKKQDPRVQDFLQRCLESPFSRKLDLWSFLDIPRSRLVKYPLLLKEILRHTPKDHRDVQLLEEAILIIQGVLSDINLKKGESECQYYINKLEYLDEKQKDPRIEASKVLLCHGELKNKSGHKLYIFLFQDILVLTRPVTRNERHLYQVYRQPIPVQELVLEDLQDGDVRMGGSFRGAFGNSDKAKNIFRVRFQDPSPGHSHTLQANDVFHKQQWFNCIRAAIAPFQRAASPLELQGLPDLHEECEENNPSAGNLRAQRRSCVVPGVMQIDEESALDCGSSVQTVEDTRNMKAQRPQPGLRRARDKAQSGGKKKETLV
UniProt Q9Z1X2: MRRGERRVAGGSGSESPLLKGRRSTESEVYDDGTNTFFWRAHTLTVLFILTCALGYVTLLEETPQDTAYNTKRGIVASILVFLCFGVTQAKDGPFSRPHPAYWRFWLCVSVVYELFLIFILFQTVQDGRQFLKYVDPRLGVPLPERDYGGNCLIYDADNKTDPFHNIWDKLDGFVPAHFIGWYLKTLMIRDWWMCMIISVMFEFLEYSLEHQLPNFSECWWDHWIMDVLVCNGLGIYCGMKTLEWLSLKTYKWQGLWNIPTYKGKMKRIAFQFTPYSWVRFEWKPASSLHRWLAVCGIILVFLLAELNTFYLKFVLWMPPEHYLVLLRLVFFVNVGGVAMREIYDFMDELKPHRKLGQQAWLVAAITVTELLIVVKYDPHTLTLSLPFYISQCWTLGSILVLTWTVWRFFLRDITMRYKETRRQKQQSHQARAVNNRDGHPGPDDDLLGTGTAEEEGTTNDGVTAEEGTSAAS
UniProt Q9Z0S9, whole entry: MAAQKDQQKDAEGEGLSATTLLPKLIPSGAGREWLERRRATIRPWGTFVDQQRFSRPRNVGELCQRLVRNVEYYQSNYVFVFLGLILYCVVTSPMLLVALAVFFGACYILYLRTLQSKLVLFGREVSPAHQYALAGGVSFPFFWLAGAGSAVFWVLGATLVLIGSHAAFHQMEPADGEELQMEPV
UniProt Q9Z0E8: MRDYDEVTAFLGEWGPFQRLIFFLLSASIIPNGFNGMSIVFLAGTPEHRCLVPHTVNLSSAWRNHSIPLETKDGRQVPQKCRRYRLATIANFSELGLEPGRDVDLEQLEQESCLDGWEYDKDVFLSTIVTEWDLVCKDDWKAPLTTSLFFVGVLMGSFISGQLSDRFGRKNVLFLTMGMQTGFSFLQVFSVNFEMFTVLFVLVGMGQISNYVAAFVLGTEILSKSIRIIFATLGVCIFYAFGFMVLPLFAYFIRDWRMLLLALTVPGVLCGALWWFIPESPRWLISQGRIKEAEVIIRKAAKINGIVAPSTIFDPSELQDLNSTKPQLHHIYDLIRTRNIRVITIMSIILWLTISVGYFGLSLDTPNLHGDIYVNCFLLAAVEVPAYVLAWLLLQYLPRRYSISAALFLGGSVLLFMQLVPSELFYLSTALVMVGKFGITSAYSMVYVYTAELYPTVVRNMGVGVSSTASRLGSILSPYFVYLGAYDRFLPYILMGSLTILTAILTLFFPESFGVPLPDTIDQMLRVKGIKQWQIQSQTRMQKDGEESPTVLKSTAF

The other results are listed elsewhere or left out. Most values lie at the level of the controls, where differences are scatter.

Compound in the assay: CN[C@@H]1C[C@H]2O[C@@](C)([C@@H]1OC)n1c3ccccc3c3c4c(c5c6ccccc6n2c5c31)C(=O)NC4 [staurosporine]
In words: log2 fold change of tryptic peptide abundance, ligand vs vehicle (limited proteolysis) (log2 ratio); higher = more trypsin-susceptible (destabilized). As to conditions: ligand concentration: 20 uM; sample: mouse liver crude lysate; replicate design: treated separately.
Regarding “UniProt Q9Z2D8 (peptide sequence: DVFYYSPSGK, peptide start residue: 32)”, the log2 fold change was -0.178.
“UniProt Q9Z110 (peptide sequence: GQDHVVSDFSEHGSLK, peptide start residue: 766)”: the log2 fold change was -0.477.
In the case of “UniProt Q9Z2Y8 (peptide sequence: IGSTIFGER, peptide start residue: 242)”, the log2 fold change is -0.291.
As to “UniProt Q9Z2C4 (peptide sequence: VAGGASASSR, peptide start residue: 35)”, the log2 fold change was -0.0811.
For the target “UniProt Q9Z2X1 (peptide sequence: HSGPNSADSANDGFVR, peptide start residue: 99)”, the log2 fold change was -0.417.
Then “UniProt Q9WVL1 (peptide sequence: YYEHVDINKR, peptide start residue: 19)”, with 0.105; and “UniProt Q9Z0F7 (peptide sequence: EGVVGAVEK, peptide start residue: 13)”, with 0.0715; and “UniProt Q9Z0G0 (peptide sequence: DTELAATMVELGKDKR, peptide start residue: 280)”, with 0.187.
Next, “UniProt Q9Z2A5 (peptide sequence: GSIESEEKEKEK, peptide start residue: 148)”: -0.103; “UniProt Q9Z2I0 (peptide sequence: ALGVTEDR, peptide start residue: 385)”: -0.16; “UniProt Q9Z2I8 (peptide sequence: QKDIFAMDDKSENEPIENEAAR, peptide start residue: 271)”: -0.105.
Next, “UniProt Q9Z104 (peptide sequence: YLDEAEKEK, peptide start residue: 119)”: 0.418; “UniProt Q9Z0P5 (peptide sequence: HQTLQGLAFPLQPEAQR, peptide start residue: 172)”: -0.187.
Regarding “UniProt Q9WVB0 (peptide sequence: FDPEIPQTLR, peptide start residue: 86)”, the log2 fold change came out at 0.0584.
Then “UniProt Q9Z172 (peptide sequence: SEEKPKEGVK, peptide start residue: 2)”, with -0.156; and “UniProt Q9Z1K5 (peptide sequence: LFAECHVINPSK, peptide start residue: 155)”, with -0.248.
Next, “UniProt Q9Z2F7 (peptide sequence: EFHFRHPK, peptide start residue: 154)”: -0.0535.
Consider “UniProt Q9Z2D0 (peptide sequence: YHVLQESLIK, peptide start residue: 271)”, for which the log2 fold change stood at 0.189.
For “UniProt Q9Z0P7 (peptide sequence: GLEINSKPVLPPINSQR, peptide start residue: 315)”, the log2 fold change came out at 0.102.
As to “UniProt Q9Z1J2 (peptide sequence: LLPSYPGIGK, peptide start residue: 511)”, the log2 fold change was -0.308.
Then “UniProt Q9Z205 (peptide sequence: FLLDWGADPHILAK, peptide start residue: 151)”, with -0.807; and “UniProt Q9WVH3 (peptide sequence: KKPSVLPAPPEGATPR, peptide start residue: 214)”, with -0.233; and “UniProt Q9Z2L6 (peptide sequence: FFDHCEK, peptide start residue: 222)”, with -0.329.
“UniProt Q9Z1K6 (peptide sequence: SCWEQHCSVLVK, peptide start residue: 162)”: the log2 fold change is -0.467.
Consider “UniProt Q9Z2F6 (peptide sequence: GTPGAALPLR, peptide start residue: 22)”, for which the log2 fold change was -0.193.
Next, “UniProt Q9WVJ3 (peptide sequence: LGLLVDTVGPR, peptide start residue: 65)”: -0.0437; “UniProt Q9Z1B8 (peptide sequence: GLDWDAGHLSNR, peptide start residue: 173)”: 0.111.
As to “UniProt Q9Z206 (peptide sequence: VQDFLQR, peptide start residue: 233)”, the log2 fold change was -0.0421.
Next, “UniProt Q9Z0G9 (peptide sequence: STGPGTGTGTAYDR, peptide start residue: 202)”: -0.0655; “UniProt Q9Z0J0 (peptide sequence: EVNVSPCPTDPCQLHK, peptide start residue: 36)”: 0.0249.
Turning to “UniProt Q9Z1X2 (peptide sequence: VAGGSGSESPLLK, peptide start residue: 8)”, the log2 fold change is 0.0202.
Next, “UniProt Q9Z0S9 (peptide sequence: DQQKDAEGEGLSATTLLPK, peptide start residue: 6)”: -0.187.
Next, “UniProt Q9Z2R9 (peptide sequence: IIEQEKEIEELKK, peptide start residue: 594)”: -0.395; “UniProt Q9Z0E8 (peptide sequence: DGEESPTVLK, peptide start residue: 544)”: -0.387.
